# From the supplement of paper PMC11006884
# Chains of the proteins cited; added tags and fusions are not shown. Lines headed by an entry give the natural chain unless they say otherwise; changes in a name come on top.
# UniProt Q96PY6: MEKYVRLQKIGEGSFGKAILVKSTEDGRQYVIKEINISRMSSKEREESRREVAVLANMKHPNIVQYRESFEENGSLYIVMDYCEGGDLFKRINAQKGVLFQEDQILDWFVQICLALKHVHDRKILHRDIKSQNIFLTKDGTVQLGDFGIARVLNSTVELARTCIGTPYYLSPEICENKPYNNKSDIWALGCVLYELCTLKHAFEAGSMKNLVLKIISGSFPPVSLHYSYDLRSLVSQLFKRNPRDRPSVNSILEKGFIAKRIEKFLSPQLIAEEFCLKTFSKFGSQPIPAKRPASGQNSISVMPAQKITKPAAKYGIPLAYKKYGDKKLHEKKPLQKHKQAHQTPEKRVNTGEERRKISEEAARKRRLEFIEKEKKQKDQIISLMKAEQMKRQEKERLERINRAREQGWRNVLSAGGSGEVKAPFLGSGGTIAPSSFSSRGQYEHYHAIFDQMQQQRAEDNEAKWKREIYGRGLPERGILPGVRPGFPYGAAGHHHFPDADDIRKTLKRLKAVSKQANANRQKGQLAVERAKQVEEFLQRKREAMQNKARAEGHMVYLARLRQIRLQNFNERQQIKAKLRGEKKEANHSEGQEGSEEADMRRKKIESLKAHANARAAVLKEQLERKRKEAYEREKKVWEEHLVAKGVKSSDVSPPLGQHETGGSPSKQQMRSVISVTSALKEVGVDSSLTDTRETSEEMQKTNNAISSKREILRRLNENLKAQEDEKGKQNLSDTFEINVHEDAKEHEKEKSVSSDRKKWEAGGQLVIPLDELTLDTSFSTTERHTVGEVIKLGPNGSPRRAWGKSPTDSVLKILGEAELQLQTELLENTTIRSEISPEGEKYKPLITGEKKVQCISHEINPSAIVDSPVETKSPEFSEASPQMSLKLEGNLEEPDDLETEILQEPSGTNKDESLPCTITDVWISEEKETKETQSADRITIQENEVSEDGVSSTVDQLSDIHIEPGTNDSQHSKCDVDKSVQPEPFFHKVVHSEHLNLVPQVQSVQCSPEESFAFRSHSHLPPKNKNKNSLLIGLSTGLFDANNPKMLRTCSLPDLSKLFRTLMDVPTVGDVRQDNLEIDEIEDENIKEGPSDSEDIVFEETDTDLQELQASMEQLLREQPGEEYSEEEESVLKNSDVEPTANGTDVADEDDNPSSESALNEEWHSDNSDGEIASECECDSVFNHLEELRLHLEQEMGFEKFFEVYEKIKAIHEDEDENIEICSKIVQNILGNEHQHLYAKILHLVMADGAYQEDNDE
# UniProt Q9BQ69: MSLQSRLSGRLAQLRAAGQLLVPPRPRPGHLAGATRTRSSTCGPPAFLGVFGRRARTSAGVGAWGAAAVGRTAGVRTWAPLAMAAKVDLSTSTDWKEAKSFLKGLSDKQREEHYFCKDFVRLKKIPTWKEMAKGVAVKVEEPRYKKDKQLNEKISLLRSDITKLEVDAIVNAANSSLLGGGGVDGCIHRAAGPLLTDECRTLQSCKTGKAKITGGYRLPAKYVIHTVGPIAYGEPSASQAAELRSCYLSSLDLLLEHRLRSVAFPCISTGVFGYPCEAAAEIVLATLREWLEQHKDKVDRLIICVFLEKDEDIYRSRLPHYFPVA
# UniProt Q9BQ15: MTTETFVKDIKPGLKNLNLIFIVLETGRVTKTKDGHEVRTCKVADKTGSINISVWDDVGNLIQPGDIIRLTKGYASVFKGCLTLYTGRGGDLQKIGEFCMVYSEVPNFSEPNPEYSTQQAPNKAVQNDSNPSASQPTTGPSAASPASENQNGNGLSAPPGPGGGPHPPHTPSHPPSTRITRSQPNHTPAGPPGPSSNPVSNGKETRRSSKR
# UniProt Q9BQG0: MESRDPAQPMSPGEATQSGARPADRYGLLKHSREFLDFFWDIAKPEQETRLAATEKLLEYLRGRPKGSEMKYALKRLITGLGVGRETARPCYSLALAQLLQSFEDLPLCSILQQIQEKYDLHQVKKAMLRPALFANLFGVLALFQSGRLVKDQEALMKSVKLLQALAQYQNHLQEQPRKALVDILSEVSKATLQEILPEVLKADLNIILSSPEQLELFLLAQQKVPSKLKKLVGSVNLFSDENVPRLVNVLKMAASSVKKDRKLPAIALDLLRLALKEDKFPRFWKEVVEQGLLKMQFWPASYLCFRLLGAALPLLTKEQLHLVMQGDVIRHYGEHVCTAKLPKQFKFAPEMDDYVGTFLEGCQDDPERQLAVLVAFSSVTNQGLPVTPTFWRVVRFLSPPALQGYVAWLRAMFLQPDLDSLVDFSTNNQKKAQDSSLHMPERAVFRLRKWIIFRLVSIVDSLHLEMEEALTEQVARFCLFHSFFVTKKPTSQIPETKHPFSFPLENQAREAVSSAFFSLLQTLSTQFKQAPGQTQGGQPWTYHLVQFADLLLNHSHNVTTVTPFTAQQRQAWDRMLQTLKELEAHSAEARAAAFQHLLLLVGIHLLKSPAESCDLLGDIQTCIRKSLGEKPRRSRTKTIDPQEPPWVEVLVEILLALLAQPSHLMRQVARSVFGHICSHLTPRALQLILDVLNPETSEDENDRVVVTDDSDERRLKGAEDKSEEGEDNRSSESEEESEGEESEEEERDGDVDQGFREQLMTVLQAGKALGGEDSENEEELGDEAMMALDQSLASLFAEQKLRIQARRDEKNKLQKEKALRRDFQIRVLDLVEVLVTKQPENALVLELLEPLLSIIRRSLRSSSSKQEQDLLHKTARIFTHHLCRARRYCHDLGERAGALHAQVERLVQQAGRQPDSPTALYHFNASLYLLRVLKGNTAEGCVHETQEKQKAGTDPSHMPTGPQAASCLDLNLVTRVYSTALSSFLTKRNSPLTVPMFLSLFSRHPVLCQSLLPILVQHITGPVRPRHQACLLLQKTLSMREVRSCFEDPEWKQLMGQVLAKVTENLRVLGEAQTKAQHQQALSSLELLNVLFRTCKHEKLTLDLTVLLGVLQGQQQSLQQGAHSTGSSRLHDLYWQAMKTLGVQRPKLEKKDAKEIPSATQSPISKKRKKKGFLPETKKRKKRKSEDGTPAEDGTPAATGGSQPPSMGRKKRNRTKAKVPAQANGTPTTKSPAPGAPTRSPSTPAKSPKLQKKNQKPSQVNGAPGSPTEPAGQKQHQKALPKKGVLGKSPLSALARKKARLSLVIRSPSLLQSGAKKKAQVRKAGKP
# UniProt Q9BQ52: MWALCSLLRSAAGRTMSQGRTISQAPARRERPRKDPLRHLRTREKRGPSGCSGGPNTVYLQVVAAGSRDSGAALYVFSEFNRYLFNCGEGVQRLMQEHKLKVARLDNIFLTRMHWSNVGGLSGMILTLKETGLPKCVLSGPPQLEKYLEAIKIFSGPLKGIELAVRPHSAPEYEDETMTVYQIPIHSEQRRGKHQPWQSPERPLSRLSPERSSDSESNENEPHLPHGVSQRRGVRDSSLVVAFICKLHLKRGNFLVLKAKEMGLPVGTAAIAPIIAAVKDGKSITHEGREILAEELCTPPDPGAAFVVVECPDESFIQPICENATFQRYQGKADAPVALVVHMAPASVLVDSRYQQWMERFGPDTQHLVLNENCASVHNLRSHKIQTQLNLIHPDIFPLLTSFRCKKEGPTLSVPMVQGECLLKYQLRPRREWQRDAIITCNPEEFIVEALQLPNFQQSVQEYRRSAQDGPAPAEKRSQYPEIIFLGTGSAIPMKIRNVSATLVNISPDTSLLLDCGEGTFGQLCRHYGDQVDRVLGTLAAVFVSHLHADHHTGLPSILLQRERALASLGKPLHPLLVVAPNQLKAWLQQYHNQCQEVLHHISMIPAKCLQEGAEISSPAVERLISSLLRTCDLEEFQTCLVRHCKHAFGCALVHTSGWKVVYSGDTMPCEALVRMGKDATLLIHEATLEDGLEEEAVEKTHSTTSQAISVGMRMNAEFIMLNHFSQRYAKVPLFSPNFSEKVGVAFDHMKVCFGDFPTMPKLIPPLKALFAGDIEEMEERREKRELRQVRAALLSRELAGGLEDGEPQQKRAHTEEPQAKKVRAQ
# UniProt Q99700, whole entry: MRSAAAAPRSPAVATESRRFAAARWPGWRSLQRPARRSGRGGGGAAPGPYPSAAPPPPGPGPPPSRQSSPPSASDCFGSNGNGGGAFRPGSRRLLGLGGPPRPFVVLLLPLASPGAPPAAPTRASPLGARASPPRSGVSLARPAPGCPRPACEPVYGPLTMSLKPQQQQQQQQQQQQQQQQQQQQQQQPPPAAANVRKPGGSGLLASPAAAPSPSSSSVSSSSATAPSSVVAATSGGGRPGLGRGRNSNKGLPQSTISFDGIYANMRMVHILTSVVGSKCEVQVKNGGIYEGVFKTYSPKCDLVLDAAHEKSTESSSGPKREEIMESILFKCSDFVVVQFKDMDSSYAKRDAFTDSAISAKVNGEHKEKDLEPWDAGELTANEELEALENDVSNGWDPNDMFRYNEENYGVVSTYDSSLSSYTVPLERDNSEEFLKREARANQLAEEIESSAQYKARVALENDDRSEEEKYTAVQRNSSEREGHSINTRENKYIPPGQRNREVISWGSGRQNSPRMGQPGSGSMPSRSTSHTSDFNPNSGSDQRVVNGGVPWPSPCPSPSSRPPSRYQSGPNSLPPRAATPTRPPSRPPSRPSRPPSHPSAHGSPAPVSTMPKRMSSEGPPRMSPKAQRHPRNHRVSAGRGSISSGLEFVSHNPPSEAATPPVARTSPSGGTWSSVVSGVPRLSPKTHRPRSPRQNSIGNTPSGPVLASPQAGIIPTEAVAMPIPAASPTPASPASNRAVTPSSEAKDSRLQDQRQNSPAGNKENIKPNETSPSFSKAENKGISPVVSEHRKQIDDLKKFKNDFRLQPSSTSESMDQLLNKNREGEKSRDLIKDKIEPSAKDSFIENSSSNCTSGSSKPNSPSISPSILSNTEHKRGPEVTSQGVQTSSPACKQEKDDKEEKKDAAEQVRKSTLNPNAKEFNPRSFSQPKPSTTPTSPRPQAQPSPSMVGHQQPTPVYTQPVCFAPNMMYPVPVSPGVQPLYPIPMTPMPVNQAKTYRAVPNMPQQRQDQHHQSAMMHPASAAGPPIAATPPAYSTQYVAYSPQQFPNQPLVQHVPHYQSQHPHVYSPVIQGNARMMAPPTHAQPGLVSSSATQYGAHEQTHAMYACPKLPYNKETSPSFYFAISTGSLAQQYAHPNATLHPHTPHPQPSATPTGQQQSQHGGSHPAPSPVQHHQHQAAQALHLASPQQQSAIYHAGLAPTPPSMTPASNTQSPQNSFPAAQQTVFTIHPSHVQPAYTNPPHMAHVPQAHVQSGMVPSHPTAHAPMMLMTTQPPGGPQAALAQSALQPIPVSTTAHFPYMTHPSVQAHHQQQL
# UniProt Q99704: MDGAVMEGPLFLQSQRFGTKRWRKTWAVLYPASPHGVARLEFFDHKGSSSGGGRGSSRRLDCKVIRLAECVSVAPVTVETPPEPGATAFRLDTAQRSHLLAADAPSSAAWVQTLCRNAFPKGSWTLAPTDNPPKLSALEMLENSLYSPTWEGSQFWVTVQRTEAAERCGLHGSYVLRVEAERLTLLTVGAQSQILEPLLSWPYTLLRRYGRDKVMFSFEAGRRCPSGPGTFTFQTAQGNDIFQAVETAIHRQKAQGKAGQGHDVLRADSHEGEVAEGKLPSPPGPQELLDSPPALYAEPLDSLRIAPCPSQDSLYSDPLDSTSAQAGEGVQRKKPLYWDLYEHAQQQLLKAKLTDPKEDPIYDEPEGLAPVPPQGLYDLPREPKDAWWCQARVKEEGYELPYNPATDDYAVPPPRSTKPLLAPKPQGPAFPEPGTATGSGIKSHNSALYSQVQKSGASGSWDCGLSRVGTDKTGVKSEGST
# UniProt Q96T21: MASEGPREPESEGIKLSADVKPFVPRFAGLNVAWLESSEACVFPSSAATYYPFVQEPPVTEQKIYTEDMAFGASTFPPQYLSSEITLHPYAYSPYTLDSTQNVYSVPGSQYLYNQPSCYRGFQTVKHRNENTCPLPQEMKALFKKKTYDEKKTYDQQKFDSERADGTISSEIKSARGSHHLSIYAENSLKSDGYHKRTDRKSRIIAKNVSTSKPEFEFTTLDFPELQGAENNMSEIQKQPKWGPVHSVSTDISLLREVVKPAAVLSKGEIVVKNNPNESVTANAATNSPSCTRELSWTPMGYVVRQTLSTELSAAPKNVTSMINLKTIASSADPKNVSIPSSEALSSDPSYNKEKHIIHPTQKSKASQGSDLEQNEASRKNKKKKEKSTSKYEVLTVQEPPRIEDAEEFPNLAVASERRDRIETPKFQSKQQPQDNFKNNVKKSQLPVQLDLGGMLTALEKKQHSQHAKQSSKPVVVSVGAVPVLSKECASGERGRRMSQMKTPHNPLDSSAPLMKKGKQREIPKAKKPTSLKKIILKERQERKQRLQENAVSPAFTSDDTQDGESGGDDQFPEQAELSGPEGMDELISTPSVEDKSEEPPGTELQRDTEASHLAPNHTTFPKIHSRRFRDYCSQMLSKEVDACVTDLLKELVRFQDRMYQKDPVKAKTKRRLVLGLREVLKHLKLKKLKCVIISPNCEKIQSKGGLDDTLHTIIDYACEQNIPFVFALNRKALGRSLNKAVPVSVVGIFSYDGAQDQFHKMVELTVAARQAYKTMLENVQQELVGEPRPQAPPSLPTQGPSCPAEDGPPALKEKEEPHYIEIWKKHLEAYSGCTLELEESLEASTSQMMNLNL
# The entries are a selection whose mix differs from that of the whole data set. The data scatter; read single values as rough.
# Compound: COC(=O)/C=C/c1ccccc1 [methyl cinnamate]
# Assay: log2 ratio of iodoacetamide-alkyne labeling of the cysteine site, DMSO over compound (competition); higher = stronger covalent engagement of the cysteine by the compound, active = 1 or more
# Details: 500 µM; treatment time 1 h; system: HEK293T cell lysate
# In short: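 After 1 h at ambient temperature with vehicle or electrophile (500 µM), HEK293T lysate (2 mg/mL) was labelled for 1 h with iodoacetamide alkyne and clicked to sCIP-TMT reagents. Pooled samples were trypsin-digested overnight at 37 °C, streptavidin-enriched, acid-eluted and analysed by Orbitrap Eclipse LC-MS/MS with FAIMS, then quantified in FragPipe over three replicates with duplicate channels. A cysteine's log2 competition ratio is its mean control-channel over mean compound-channel reporter intensity. Cysteines quantified in only one replicate were not included.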
row,Target,log2 ratio of iodoacetamide-alkyne labeling
1,NEK1 C276 (UniProt Q96PY6),inactive: 0.0187
2,MACROD1 C186 (UniProt Q9BQ69),inactive: 0.0422
3,RUFY1 C544 (UniProt Q96T51),inactive: -0.124
4,PSMD1 C806 (UniProt Q99460),inactive: 0.352
5,EHMT2 C866 (UniProt Q96KQ7),inactive: 0.101
6,NABP2 C99 (UniProt Q9BQ15),inactive: 0.185
7,MACROD1 C199 (UniProt Q9BQ69),inactive: 0.042
8,RNF5 C30 (UniProt Q99942),inactive: 0.0227
9,MYBBP1A C942 (UniProt Q9BQG0),inactive: 0.306
10,ELAC2 C441 (UniProt Q9BQ52),inactive: -0.102
11,SUCLG2 C162 (UniProt Q96I99),inactive: 0.249
12,MTR C1153 (UniProt Q99707),inactive: -0.042
13,ATXN2 C852 (UniProt Q99700),inactive: 0.207
14,DOK1 C308 (UniProt Q99704),inactive: 0.346
15,SECISBP2 C719 (UniProt Q96T21),inactive: -0.138

# Two entries picked at random from those above:
row,Target,log2 ratio of iodoacetamide-alkyne labeling
12,MTR C1153 (UniProt Q99707),inactive: -0.042
2,MACROD1 C186 (UniProt Q9BQ69),inactive: 0.0422
